# Assay results reported in PubChem BioAssay AID540276 (National Center for Advancing Translational Sciences (NCATS), 2011).
# About 5,400 (1.8%) of roughly 300,000 compounds were called active. Inconclusive means that the source gave no clear call. Such entries were picked first, then a sample of the others. Calls follow the shape of the full dose curve; tested in HEK293 cells. A potency beside an inconclusive call is a rough fit, not a confirmed value.
# Assay: qHTS for inhibitors of binding or entry into cells for Marburg Virus
# Conditions: Marburg virus pseudotyped entry inhibition, cell reporter; activity change, negative = inhibition: at 37.8 µM (top of the series) unless noted
# % is scaled to controls: 0 for no effect and ±100 for the full control effect; potency is read from the fitted curve at half-maximal effect.
SMILES,"activity change, negative = inhibition",Potency
CCOc1ccc(N(Cc2cc3cc(OC)ccc3[nH]c2=O)S(C)(=O)=O)cc1,inactive: 0.983%,
CC(C)c1ccc2occ(-c3nn[nH]n3)c(=O)c2c1,,"inconclusive: 6.31 µM [activator, single point]"
N#Cc1cccn1-c1nccc(-c2cccs2)n1,inactive: -18.1% [at 46.1 µM],
COc1ccc(-c2cc(C(=O)N3CCCCC3)c3ccccc3n2)cc1,inactive: -9.12%,
CCc1ccc(NC(=S)Nn2cnnc2)cc1,inactive: 5.93% [at 46.1 µM],
C/C(CC(=O)Nc1ccc(Cl)cc1)=N\NC(=O)C(=O)N1CCCCC1,,"inconclusive: 3.98 µM [activator, single point]"
Cc1cc(Cl)ccc1NC(=O)CCC(=O)N/N=C/c1cc([N+](=O)[O-])ccc1O,,"inconclusive: 35.5 µM [inhibitor, partial curve, poor fit]"
CCC/C(O)=C1\C(=O)CC(C)(C)CC1=Nc1cccc([N+](=O)[O-])c1,,"inconclusive: 11.2 µM [inhibitor, single point]"
COc1ccc2cc3cc(C(=O)NCc4ccco4)oc3nc2c1,inactive: -13.1%,
Cc1nnc(SC2CC(=O)N(c3ccccc3)C2=O)s1 (configuration not stated),inactive: 8.01% [at 46.1 µM],
Cn1c(=O)c2c(nc3sccn32)n(C)c1=O,inactive: 29.3%,
Cc1cccc(N2CCN(C(=O)CCCn3c(=S)[nH]c4cc5c(cc4c3=O)OCO5)CC2)c1C,,"inconclusive: 35.5 µM [inhibitor, single point]"
COC(=O)c1c(NC(=O)CN2CCN(c3ccccc3)CC2)c2c(C)cccc2n1C,,"inconclusive: 17.8 µM [inhibitor, single point]"
Cc1cccc(-n2c(CNC(=O)c3ccc(S(=O)(=O)N4CCCCC4)cc3)n[nH]c2=S)c1,inactive: 7.69% [at 46.1 µM],
CCOc1ccc(/C=N/NC(=O)C(O)c2ccccc2)c(O)c1 (configuration not stated),,"inconclusive: 17.8 µM [inhibitor, partial curve, poor fit]"
Cn1ccc(C(=O)OCC(=O)Nc2ccccc2Cl)n1,inactive: -2.61% [at 46.1 µM],
CC1=C(C(=O)Nc2ccccn2)C(c2ccccc2)n2ncnc2N1 (configuration not stated),inactive: 4.38%,
Cc1n(CC(O)COC2CCCCC2)c2ccccc2[n+]1C (configuration not stated),inactive: -2.47%,
COc1ncnc2c1N=C1CC(C)(C)CC(N)=C1S2,,"inconclusive: 0.116 µM [inhibitor, full curve, poor fit]"
C=CCNc1cc(N2CCCC2)ccc1[N+](=O)[O-],inactive: 12.4% [at 46.1 µM],
COc1ccc(/C=N/NC(=O)CSCc2ccc([N+](=O)[O-])cc2)cc1OC,inactive: 10.7%,
COc1ccc(CC(=O)Nc2ccc(-c3cn4ccccc4n3)cc2)cc1OC,inactive: 0.264%,
CCCCOC(=O)c1ccc(NC(=O)Nc2ccc(OC)c(OC)c2)cc1,inactive: 1.18%,
CC(=O)c1cn(CC(=O)Nc2ccccc2F)c2ccccc12,,"inconclusive: 6.31 µM [inhibitor, partial curve, poor fit]"
Cc1nn(C)cc1C(=O)Nc1cc(Oc2ccc(Cl)cc2)cc([N+](=O)[O-])c1,,"inconclusive: 32.6 µM [inhibitor, single point]"
COC(=O)c1c(NC(=O)c2cc(=O)c3cc(C)cc(C)c3o2)sc2c1CCC2,inactive: 4.41% [at 46.1 µM],

SMILES,"activity change, negative = inhibition",Potency
O=C(COC(=O)CCSc1ccccc1)NCc1ccccc1,,"inconclusive: 6.31 µM [inhibitor, single point]"
Cn1cccc1/C=C1\C(=O)NC(=O)N(CCC2=CCCCC2)C1=O,,"inconclusive: 12.6 µM [inhibitor, partial curve, poor fit]"
CC(=O)Nc1ccc(NC(=O)C(C)N2CCN(S(=O)(=O)c3ccc(C)cc3)CC2)cc1 (configuration not stated),,"inconclusive: 0.199 µM [inhibitor, full curve, poor fit]"
Cc1onc(-c2ccccc2)c1C(=O)N/N=C/c1ccc([N+](=O)[O-])s1,,"inconclusive: 3.55 µM [inhibitor, partial curve, poor fit]"
CCOC(=O)C1(CCCc2ccccc2)CCN(C2CCCC2)CC1,,"inconclusive: 6.31 µM [inhibitor, partial curve, poor fit]"
C=CCN1CCN(C(c2ccc(Cl)cc2)c2nnnn2CCc2ccc(OC)c(OC)c2)CC1 (configuration not stated),inactive: -17.2% [at 46.1 µM],
O=C1COc2ccc(-c3csc(NCC4CCCO4)n3)cc2N1 (configuration not stated),inactive: -11.3% [at 46.1 µM],
Cn1ncc(Cl)c1C(=O)NC(=S)Nc1sc2c(c1C#N)CCCCC2,inactive: 17.2%,
COC(=O)c1c(NC(=O)C2COc3ccccc3O2)sc2c1CCN(C(C)=O)C2 (configuration not stated),inactive: -4.51%,
Cn1cccc1CNCCc1ccccc1F,,"inconclusive: 32.6 µM [inhibitor, single point]"
Cc1cccc(C)c1Nc1nnc(SCC(=O)Nc2ncc(C(F)(F)F)cc2Cl)s1,,"inconclusive: 6.31 µM [inhibitor, single point]"
c1coc(-c2nnc(-c3cccs3)o2)c1,inactive: -2.57%,
CCOC(=O)c1cnn(-c2nc(-c3ccccc3F)cs2)c1C(F)(F)F,,"inconclusive: 0.92 µM [inhibitor, full curve, poor fit]"
Fc1ccc(CSc2nncn2NC/C=C/c2ccccc2)cc1,inactive: -20%,
CN1C(=O)/C(=C/c2ccccc2F)Sc2ccc(C(=O)N3CCCC3)cc21,,"inconclusive: 35.5 µM [inhibitor, single point]"
COc1ccccc1N(Cc1ccccc1)S(=O)(=O)c1cccc(C(=O)Nc2ccccn2)c1,,"inconclusive: 4.47 µM [inhibitor, full curve, poor fit]"
COc1ccc(N2CCN(C(=O)c3[nH]c4ccc(OC)cc4c3C)CC2)cc1,,"inconclusive: 14.1 µM [activator, single point]"
CCCCNC(=O)NNC(=O)c1ccoc1C,inactive: -3.95%,
CO/N=C/NC(=O)N1OC[C@@H]2COc3ccc4ccccc4c3[C@@H]21,inactive: -10.1%,
CC(C)C(O)(C#CCN1CCCCCC1)c1ccccc1 (configuration not stated),inactive: -16% [at 46.1 µM],
CN(C)c1ccc(C(=S)N2CCCCC2)cc1,inactive: 5.43% [at 46.1 µM],
COc1cc(C(=O)NC(=S)NNC(=O)c2cnccn2)cc(OC)c1OC,,"inconclusive: 4.47 µM [inhibitor, full curve, poor fit]"
Cc1cccc(C)c1OCCn1nc(C(=O)O)c2ccccc2c1=O,,active: 10 µM
Nc1nnc(-c2ccc(Cl)cc2)s1,inactive: 6.58%,
COc1cccc(C(=O)Nc2nnc(C(C)C)s2)c1,,"inconclusive: 10 µM [inhibitor, partial curve, poor fit]"
NC(=O)N1N=C2/C(=C/c3ccccc3)CCCC2C1c1ccccc1 (configuration not stated),,"inconclusive: 10 µM [inhibitor, partial curve, poor fit]"

# Some of these compounds in order of molecular weight, rising.
SMILES,"activity change, negative = inhibition",Potency
Cn1c(=O)c2c(nc3sccn32)n(C)c1=O,inactive: 29.3%,
CC(C)c1ccc2occ(-c3nn[nH]n3)c(=O)c2c1,,"inconclusive: 6.31 µM [activator, single point]"
Cc1cc(Cl)ccc1NC(=O)CCC(=O)N/N=C/c1cc([N+](=O)[O-])ccc1O,,"inconclusive: 35.5 µM [inhibitor, partial curve, poor fit]"

# Next compounds

SMILES,"activity change, negative = inhibition",Potency
COc1ccc2ccccc2c1CNCCCN1CCOCC1,,"inconclusive: 12.6 µM [inhibitor, partial curve, poor fit]"
CNC(=O)c1cc2c(-c3ccccc3)nn(C)c2s1,inactive: -13.5% [at 46.1 µM],
Cc1ccc(C(=O)NCCCNC(=O)c2ccccn2)cc1,inactive: 2.46% [at 46.1 µM],
O=C(C1CCCN(c2ncnc3c2nc2n3CCCCC2)C1)N1CCN(c2ccc(F)cc2)CC1 (configuration not stated),,"inconclusive: 8.91 µM [inhibitor, partial curve, poor fit]"
COc1cccc(NC(=O)COC(=O)c2ccccc2F)c1,inactive: 1.86%,
O=C(Cc1ccccc1)N[C@@H](Cc1ccccc1)c1nc2ccccc2[nH]1,,"inconclusive: 15.8 µM [inhibitor, single point]"
CC(C)N(CCO)Cc1nc(C(c2ccccc2)c2ccccc2)no1,,"inconclusive: 0.0891 µM [inhibitor, full curve, poor fit]"
COc1ccc(N2CCN(C(=O)c3ccc(COc4ccc5c(C)cc(=O)oc5c4)cc3)CC2)cc1,,"inconclusive: 3.16 µM [activator, single point]"
COc1ccc(Oc2nc(SC)nc3ccccc23)cc1,,"inconclusive: 35.5 µM [inhibitor, single point]"
Cc1nc2cc(N=NC3=C(O)CCCC3=O)ccc2s1,inactive: -29.8%,
O=C1/C(=C\c2ccc(O)c(O)c2)SC(=S)N1Cc1ccccc1,,"inconclusive: 35.5 µM [inhibitor, single point]"
Cc1ccccc1C(OCCN(C(C)C)C(C)C)c1ccccc1 (configuration not stated),,"inconclusive: 10 µM [inhibitor, partial curve, poor fit]"
Cc1cccc(C)c1OCC(=O)N=Nc1c(O)[nH]c2ccc(Br)cc12,,"inconclusive: 16.4 µM [inhibitor, partial curve]"
Cn1c(NCCN)nc2c1c(=O)n(Cc1ccccc1)c(=O)n2C,inactive: -7.11% [at 46.1 µM],
CCC(NC(=O)C1C2C=CC(C2)C1C(=O)O)c1ccc(C)cc1 (configuration not stated),inactive: 1.48%,
COc1ccc(/C(C)=N/NC(=O)CNC(=O)/C=C\c2ccco2)cc1,,"inconclusive: 0.259 µM [inhibitor, full curve, poor fit]"
CC(=O)c1ccc2c(c1)c1ccccc1n2CC(C)C,,"inconclusive: 20 µM [inhibitor, partial curve, poor fit]"
CCOC(=O)C1(CCCc2ccccc2)CCN(S(=O)(=O)N(C)C)CC1,,"inconclusive: 35.5 µM [inhibitor, single point]"
Cn1c(=O)c2c(SCC(=O)NCC3CCCO3)nc(-c3ccccc3Cl)nc2n(C)c1=O (configuration not stated),inactive: 0.994%,
Cc1[nH]n(-c2ccccc2)c(=O)c1C(=O)c1cccc(F)c1,,active: 10.3 µM
O=S(=O)(Nc1ccc(-c2cn3c(n2)SCC3)cc1)c1ccccc1F,,"inconclusive: 5.01 µM [activator, single point]"
Cc1cc2nc(-c3ccc(OCc4ccccc4F)cc3)cc(C(F)(F)F)n2n1,inactive: -0.705% [at 46.1 µM],
Cc1ccccc1NC(=O)CSc1ccc(-c2ccc(-n3cccn3)cc2)nn1,inactive: 21.3%,
Cc1nnc(NC(=O)c2sc3nc(-c4cccs4)cc(C(F)(F)F)c3c2N)s1,,"inconclusive: 0.562 µM [inhibitor, full curve, poor fit]"
COC(=O)C1=C(C)N(Cc2ccccc2)C(=O)NC1CCc1ccccc1 (configuration not stated),inactive: 22.7% [at 14.2 µM],
